# Laboratory results published in patent publication EP4480961A1.
# Substitutions are numbered along the chain they refer to. Results are given in words; binding and its absence hold for the method and conditions named. Some entries that bind do so weakly or less than the wild type.
# T1: wild-type E. coli OmpF embedded in the membrane of E. coli MDS42 cells (Escherichia coli) (UniProt P02931)
# T1 sequence: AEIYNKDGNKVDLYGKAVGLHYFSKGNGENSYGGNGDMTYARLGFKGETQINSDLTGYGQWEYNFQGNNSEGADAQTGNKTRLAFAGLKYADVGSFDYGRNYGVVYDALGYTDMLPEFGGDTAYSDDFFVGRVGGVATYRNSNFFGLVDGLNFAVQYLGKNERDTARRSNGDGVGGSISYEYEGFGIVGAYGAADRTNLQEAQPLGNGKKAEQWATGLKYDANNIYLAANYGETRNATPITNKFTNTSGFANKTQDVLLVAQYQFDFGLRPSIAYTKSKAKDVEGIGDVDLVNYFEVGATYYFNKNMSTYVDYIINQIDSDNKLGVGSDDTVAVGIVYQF
# B1: DBP1-L1 chimeric protein (designed binder)
# chain: MADLPQKVSNLSINNKENGGGGGKSSYVPPHLRSRGKPSFERRSPKQKDKVTGGDFFRRAGRQTGNNGGFFGFSKERNGGTSANYNRRGSSNYKSSGNRWVNGKHIPGPKNAKLQKAELFGVHDDPDYHSSGIKFDNYDNIPVDASGKDVPEPILGGRTRGGGGFFNSRNNGSRDYRKHGGNGSFGSTRPRNTGTSNWGSIGGGFRNDNEKNGYGNSNASWWGSATVKFTYQGEEKQVDISKIKMVIRMGQMILFTYDEGGGAMGRGIVSEKDAPKELLQMLEKQ
# B2: DBP1-L2 chimeric protein (designed binder)
# chain: B1 chain with M245Y, M249F, M252K, L254M, T256K, M264H, R266S, I268M
# B3: L2 engineered rcSso7d binder (designed binder)
# chain: ATVKFTYQGEEKQVDISKIKYVIRFGQKIMFKYDEGGGAHGSGMVSEKDAPKELLQMLEKQ
# B4: L1 engineered rcSso7d binder (designed binder)
# chain: ATVKFTYQGEEKQVDISKIKMVIRMGQMILFTYDEGGGAMGRGIVSEKDAPKELLQMLEKQ
# How the values were obtained:
# [1] = target: T1, wild-type E. coli OmpF embedded in the membrane of E. coli MDS42 cells (Escherichia coli); test: flow cytometry on E. coli expressing wtOmpF, PBS
# [2] = target: T1, wild-type E. coli OmpF embedded in the membrane of E. coli MDS42 cells (Escherichia coli); test: specificity assay by flow cytometry
Binder,binding [1],binding [2]
B1,binds,
B2,binds,
B3,,binds
B4,,binds
